Data reported in PubChem BioAssay (NCATS).
The inconclusive results got no clear call from the source; some entries with a clear call stand among them for comparison. A potency beside an inconclusive call is a rough fit, not a confirmed value. Activity calls are given as the source filed them. Calls come from the whole dose curve; as a rule, active = well fitted cell-killing curve with a large enough effect; inconclusive = small, poorly fitted or top-dose-only effect, or effect the other way; inactive = no such curve, though single readings can be large or run the other way.

Test: Quantitative High-Throughput drug screen in 47 multiple myeloma cell lines against the NCATS MIPE library collection: JJN3_DSMZ cell viability assay (AID 1918966; note: nearly all actives have a fitted effect of over 50% in size)
Conditions: JJN3 myeloma cells viability, CellTiter-Glo ATP, 48 h; viability, % of DMSO: at 45.8 µM (top of the series)
Source text: PI: Beverly A. Mock Ph.D.
Laboratory of Cancer Biology and Genetics,
Center for Cancer Research, National Cancer Institute,
National Institute of Health, Bethesda, Maryland
Drug resistance and disease progression are common in multiple myeloma (MM) patients, underscoring the need for new therapeutic combinations. […] We hypothesized that effective combinations would reduce MYC expression and enhance p16 activity. […] These preclinical data identify potentially useful drug combinations for evaluation in drug-resistant MM and reveal potential mechanisms of combined drug sensitivity.
Described herein is the primary MIPE qHTS used to cherrypick compounds. Validated compounds were then further tested for potential synergistic activiy.
[1] Peat TJ, Gaikwad SM, Dubois W, Gyabaah-Kessie N, Zhang S, Gorjifard S, Phyo Z, Andres M, Hughitt VK, Simpson RM, Miller MA, Girvin AT, Taylor A, Williams D, D'Antonio N, Zhang Y, Rajagopalan A, Flietner E, Wilson K, Zhang X, Shinn P, Klumpp-Thomas C, McKnight C, Itkin Z, Chen L, Kazandijian D, Zhang J, Michalowski AM, Simmons JK, Keats J, Thomas CJ, Mock BA. Drug combinations identified by high-throughput screening promote cell cycle transition and upregulate Smad pathways in myeloma. Cancer Lett. 2023 Aug 1;568:216284. doi: 10.1016/j.canlet.2023.216284. Epub 2023 Jun 24. PMID: 37356470; PMCID: PMC10408729.
SEQUENCE No. (e.g., 1, 2, 3, etc.); […] (e.g., Cells, Incubation, Reagent, etc.); VALUE and DESCRIPTION.
1; Cells; 5 uL; white, solid bottom 1536-well Greiner assay plate.
2; Compounds; 23 nL; Kalypsis pin tool (Wako USA) equipped with a 1536-well pin head to transfer to the assay plates.
3; Incubation; 48 hours; 37C incubation.
4; Reagent;5uL; CellTiter Glo (Promega).
5; Detector; 425V; Luminescence; Viewlux PerkinElmer.
NOTES (numbers refer to Sequence numbers above)
1. The cell-based screening methods employed in this study were like those previously published. Briefly, the corresponding myeloma cell lines were screened in 1,536-well plates with 500 cells, 5-uL per well for inhibition of cell viability (assessed by measuring ATP levels with CellTiterGlo).
2. NCATS MIPE 4.0 library of approved and investigational drugs were added using the Kalypsis pin tool. Wells treated with DMSO only for 100% viability and media only wells for 0% viability were used as controls.
3. The assay plates were covered and incubated for 48 hours in a 37C, 5% CO2 incubator with controlled humidity.
4. After 48 hours, CellTilter-GloTM luminescent substrate mix (Promega) reagent was added to the assay plate and plates we incubated for 5 min at room temperature.
5. Signal was measured as median relative luminescence units on a ViewLux (PerkinElmer) multiplate reader.
[1] Heske CM, Davis MI, Baumgart JT, Wilson K, Gormally MV, Chen L, Zhang X, Ceribelli M, Duveau DY, Guha R, Ferrer M, Arnaldez FI, Ji J, Tran HL, Zhang Y, Mendoza A, Helman LJ, Thomas CJ. Matrix Screen Identifies Synergistic Combination of PARP Inhibitors and Nicotinamide Phosphoribosyltransferase (NAMPT) Inhibitors in Ewing Sarcoma. Clin Cancer Res. 2017 Dec 1;23(23):7301-7311. doi: 10.1158/1078-0432.CCR-17-1121. Epub 2017 Sep 12. PMID: 28899971; PMCID: PMC6636827.
Potency is the fitted concentration of half-maximal effect.

Compound | Potency | viability, % of DMSO
COc1cc(C(C)=O)ccc1OCCCN1CCC(c2noc3cc(F)ccc23)CC1 | inconclusive: 20.9 µM [cytotoxic, partial curve, poor fit] | –
COCCCOc1cc(C[C@@H](C[C@H](N)[C@@H](O)C[C@H](C(=O)NCC(C)(C)C(N)=O)C(C)C)C(C)C)ccc1OC | inconclusive: 0.0083 µM [rising, full curve, poor fit] | –
O=C1NC(=O)C(=Cc2cccc(C(F)(F)F)c2)S1 | inconclusive: 0.105 µM [cytotoxic, full curve, poor fit] | –
CC(=O)OCC(CCn1cnc2cnc(N)nc21)COC(C)=O | inconclusive: 0.0012 µM [rising, full curve, poor fit] | –
CCC(C)N(C)C(=O)c1cc2ccccc2c(-c2ccccc2Cl)n1 (stereo not given) | inconclusive: 0.0053 µM [cytotoxic, full curve, poor fit] | –
NC(=O)NN=Cc1ccc([N+](=O)[O-])o1 | inconclusive: 23.5 µM [cytotoxic, partial curve, poor fit] | –
COc1ccc(-c2oc3c(CC=C(C)C)c(OC4O[C@H](CO)[C@@H](O)[C@H](O)[C@@H]4O)cc(O)c3c(=O)c2OC2O[C@@H](C)[C@H](O)[C@@H](O)[C@@H]2O)cc1 (stereo not given in full) | active: 18.7 µM | –
COc1c(N2CCNC(C)C2)c(F)cc2c(=O)c(C(=O)O)cn(C3CC3)c12 (stereo not given) | – | inactive: 131%
Cc1cnc(C(=O)O)c[n+]1[O-] | inconclusive: 0.0066 µM [cytotoxic, full curve, poor fit] | –
O=C(Nc1cccnc1)N1CCC(Cc2cccc(Oc3ccc(C(F)(F)F)cn3)c2)CC1 | inconclusive: 18.7 µM [cytotoxic, partial curve, poor fit] | –
O=C(O)C1=NC(C(=O)O)CC(C=CN2c3cc(O)c(OC4OC(CO)C(O)C(O)C4O)cc3CC2C(=O)O)=C1 (stereo not given) | inconclusive: 2.96 µM [cytotoxic, full curve, poor fit] | –
CN1CCC(=C2c3ccccc3C=Cc3ccccc32)CC1 | inconclusive: 16.6 µM [cytotoxic, partial curve, poor fit] | –
C[C@H]1[C@H](NC(=O)C(=NOC(C)(C)C(=O)O)c2csc(N)n2)C(=O)N1S(=O)(=O)O | inconclusive: 4.69 µM [cytotoxic, partial curve, poor fit] | –
COc1ccc2cccc(CCNC(C)=O)c2c1 | – | inconclusive: 115% [cytotoxic]
CN(N=O)C(=O)N[C@H]1C(O)OC(CO)[C@@H](O)[C@H]1O (stereo not given in full) | inconclusive: 0.0118 µM [rising, full curve, poor fit] | –
CCOC(=O)c1c(CSc2ccccc2)n(C)c2cc(Br)c(O)c(CN(C)C)c12 | active: 11.8 µM | –
CC(C)NCC(O)c1ccc(NS(C)(=O)=O)cc1 (stereo not given) | inconclusive: 9.35 µM [cytotoxic, partial curve, poor fit] | –
COc1cc(N2CCC(N3CCN(C)CC3)CC2)ccc1Nc1ncnc(Nc2ccccc2S(=O)(=O)C(C)C)n1 | inconclusive: 26.4 µM [cytotoxic, partial curve, poor fit] | –
CCNC(=O)Nc1ccc2ncc(Nc3ccc(C)cc3)nc2n1 | – | inconclusive: 100% [cytotoxic]
O=c1[nH]c(=O)n([C@H]2C[C@@H](O)[C@@H](CO)O2)cc1F | inconclusive: 20.9 µM [cytotoxic, partial curve, poor fit] | –

By substructure, the compounds so far containing a halogen
Compound | Potency | viability, % of DMSO
COc1cc(C(C)=O)ccc1OCCCN1CCC(c2noc3cc(F)ccc23)CC1 | inconclusive: 20.9 µM [cytotoxic, partial curve, poor fit] | –
O=C1NC(=O)C(=Cc2cccc(C(F)(F)F)c2)S1 | inconclusive: 0.105 µM [cytotoxic, full curve, poor fit] | –
CCC(C)N(C)C(=O)c1cc2ccccc2c(-c2ccccc2Cl)n1 (stereo not given) | inconclusive: 0.0053 µM [cytotoxic, full curve, poor fit] | –
COc1c(N2CCNC(C)C2)c(F)cc2c(=O)c(C(=O)O)cn(C3CC3)c12 (stereo not given) | – | inactive: 131%
O=C(Nc1cccnc1)N1CCC(Cc2cccc(Oc3ccc(C(F)(F)F)cn3)c2)CC1 | inconclusive: 18.7 µM [cytotoxic, partial curve, poor fit] | –
CCOC(=O)c1c(CSc2ccccc2)n(C)c2cc(Br)c(O)c(CN(C)C)c12 | active: 11.8 µM | –
O=c1[nH]c(=O)n([C@H]2C[C@@H](O)[C@@H](CO)O2)cc1F | inconclusive: 20.9 µM [cytotoxic, partial curve, poor fit] | –

More structures follow.

Compound | Potency | viability, % of DMSO
O=C(c1cncc(Br)c1)N1CCC(N2CCCC2)CC1 | inconclusive: 0.003 µM [cytotoxic, full curve, poor fit] | –
CCCCOc1ccc(C(=O)Nc2ccc(F)cc2F)cc1 | inconclusive: 20.9 µM [rising, partial curve, poor fit] | –
CCOC(=O)N[C@@H]1CC[C@@H]2[C@@H](C1)C[C@H]1C(=O)O[C@H](C)[C@H]1[C@@H]2C=Cc1ccc(-c2cccc(F)c2)cn1 | inconclusive: 33.2 µM [cytotoxic, single point] | –
CS(=O)(=O)c1ccc(C2=C(c3ccccc3)C(=O)OC2)cc1 | inconclusive: 0.0026 µM [rising, full curve, poor fit] | –
Nc1ncnc2c1ncn2[C@@H]1O[C@H](CO)C[C@@H]1O | inconclusive: 23.5 µM [cytotoxic, partial curve, poor fit] | –
N#Cc1ccc(C(c2ccc(C#N)cc2)n2cncn2)cc1 | inconclusive: 23.5 µM [cytotoxic, partial curve, poor fit] | –
CO[C@H]1C=CO[C@@]2(C)Oc3c(C)c(O)c4c(O)c(c5c(c4c3C2=O)NC2(CCN(CC(C)C)CC2)N=5)=NC(=O)C(C)=CC=C[C@H](C)[C@H](O)[C@@H](C)[C@@H](O)[C@@H](C)[C@H](OC(C)=O)[C@H]1C | inconclusive: 0.132 µM [rising, full curve, poor fit] | –
Oc1ccc(-c2ccc(-c3cc(Nc4cccc(CNC5CC5)c4)n[nH]3)cc2)c(O)c1 | active: 1.32 µM | –
O=C(O)c1nc(=O)[nH]c(=O)[nH]1 | inconclusive: 10.2 µM [cytotoxic, partial curve, poor fit] | –
O=C(O)c1ccc(-c2cc3cccnc3c(-c3ccc4nonc4c3)n2)cc1 | inconclusive: 37.2 µM [cytotoxic, single point] | –
Cc1cccc2c1CC[C@H](CN1CCC(c3c(Cl)cccc3Cl)CC1)C[C@@H]2O | inconclusive: 26.4 µM [cytotoxic, single point] | –
CCN1C[C@H](C)n2c(c(O)c3c(=O)n(Cc4ccc(F)c(Cl)c4)nc(C(=O)NC)c32)C1=O | inconclusive: 3.72 µM [cytotoxic, full curve, poor fit] | –
Cc1cnc(C(=O)NCCc2ccc(S(=O)(=O)NC(=O)NC3CCCCC3)cc2)cn1 | inconclusive: 0.0209 µM [rising, full curve, poor fit] | –
Clc1ccc(CCC(Cn2ccnc2)Sc2c(Cl)cccc2Cl)cc1 (stereo not given) | inconclusive: 33.2 µM [cytotoxic, single point] | –
CC(S)C(=O)NCC(=O)O (stereo not given) | – | inactive: 142%
CCOC(=O)C1=C[C@]2(CC)CCCN3CCc4c(n1c1ccccc41)[C@@H]32 | active: 18.7 µM | –
O=C(CCc1ccc(O)cc1)c1c(O)cc(O)cc1O | inconclusive: 0.0296 µM [cytotoxic, full curve, poor fit] | –
NC[C@H]1O[C@H](O[C@@H]2[C@@H](O)[C@@H](O[C@H]3O[C@H](CO)[C@@H](O)[C@H](N)[C@@H]3O)[C@H](N)C[C@@H]2N)[C@H](O)[C@@H](O)[C@H]1O | inconclusive: 1.48 µM [cytotoxic, partial curve, poor fit] | –
O=C(NC1CCOCC1)c1ccc(-c2cc(-c3cn[nH]c3-c3ccccn3)ccn2)cc1 | – | inactive: 139%
OC(CN1CCN(c2cccc(Cl)c2)CC1)C(c1ccccc1)c1ccccc1 (stereo not given) | inconclusive: 0.0037 µM [rising, full curve, poor fit] | –
